# PubChem BioAssay AID1259354 (Paczesny and Yang Labs, IUPUI and University of Michigan, 2018)
# Chains of the proteins cited; added tags and fusions are not shown. Lines headed by an entry give the natural chain unless they say otherwise; changes in a name come on top.
# UniProt Q01638: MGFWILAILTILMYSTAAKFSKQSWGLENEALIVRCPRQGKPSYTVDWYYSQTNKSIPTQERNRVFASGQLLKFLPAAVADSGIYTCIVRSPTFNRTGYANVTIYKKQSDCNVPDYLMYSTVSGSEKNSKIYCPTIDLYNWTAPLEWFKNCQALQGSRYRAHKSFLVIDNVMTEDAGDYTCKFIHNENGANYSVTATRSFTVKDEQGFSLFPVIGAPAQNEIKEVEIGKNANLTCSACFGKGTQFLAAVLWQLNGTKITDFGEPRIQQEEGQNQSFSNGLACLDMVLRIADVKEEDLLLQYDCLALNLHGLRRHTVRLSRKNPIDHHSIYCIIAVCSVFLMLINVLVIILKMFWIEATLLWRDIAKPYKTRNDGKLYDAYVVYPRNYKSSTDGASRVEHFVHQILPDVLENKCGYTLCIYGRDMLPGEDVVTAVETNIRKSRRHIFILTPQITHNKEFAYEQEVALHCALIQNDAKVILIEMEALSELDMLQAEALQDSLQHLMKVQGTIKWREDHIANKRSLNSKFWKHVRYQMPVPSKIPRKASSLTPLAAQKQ
# Values joined by “and” are separate entries in the source; they are usually repeats but may differ in a detail not shown here. Identical values can stand only once. In all, about 78,000 compounds went through this assay and about 1,800 (2.3%) were called active. Inconclusive means that the source gave no clear call. Such entries were picked first, then a sample of the others. No stated cut-off is given here; in the data, active means inhibition above about 30%; inconclusive means mostly about 10% to 28%; inactive means weaker than that.
# Biological target: Interleukin-1 receptor-like 1 (Homo sapiens) (UniProt Q01638)
# Assay: blocks human ST2 binding to IL-33, primary screen, biochemical, AlphaLISA (AID 1259354)
# Settings: AlphaLISA ST2-Fc/biotin-IL-33 interaction, 1 h; at 17 µM, active compounds read high
row,Compound,inhibition
1,O=C(c1cccc(OC2(C(=O)O)CCSCC2)c1)N1CCOCC1,inconclusive: 12%
2,COc1ccc(C2C3=C(CCCC3=O)NC3=C2C(=O)c2ccccc23)cc1 (configuration not stated),inactive
3,CSc1cccc(NC(=O)C2(S(=O)(=O)c3ccc(Cl)cc3)CC2)c1,inconclusive: 20%
4,CCOc1ccc(NC(=O)Nc2nnc(-c3ccc(OC)c(OC)c3)s2)cc1,inconclusive: 12%
5,CC(Nc1cc(N2CCN(S(=O)(=O)N(C)C)CC2)ccc1[N+](=O)[O-])c1ccccc1 (configuration not stated),active: 30%
6,O=C(CCc1ccccc1)Nc1ccnn1C1CCN(Cc2nccs2)CC1,inconclusive: 14%
7,COCC(=O)N1CCCN(Cc2cccc(-n3cccn3)c2)CC1,inconclusive: 10%
8,Cc1c(N2CCCC2)ccc2c1NC(=O)CC2c1cc(C#CCO)cs1 (configuration not stated),inconclusive: 13%
9,CO[C@H]1[C@H](NC(=O)c2ccccn2)c2ccccc2C12CCN(C(=O)CSc1ccccc1)CC2,inactive
10,C#Cc1cccc(C(=O)N(C)CCOc2ccccc2CC)c1,inconclusive: 11%
11,N#C/C(=C/c1cn(Cc2ccc(Cl)cc2)c2ccccc12)C(=O)NCC1CCCO1 (configuration not stated),inconclusive: 19%
12,COc1ccc(NC(=O)CSC2=Nc3ccccc3C3=NC(CC(C)C)C(=O)N23)c(OC)c1 (configuration not stated),inconclusive: 17%
13,COc1ccccc1C(=O)N/C(=C\c1ccc2c(c1)OCO2)C(=O)Nc1ccc(C(C)=O)cc1,inconclusive: 26%
14,Cc1[nH]n(-c2ccc(Cl)cc2)c(=O)c1C=Nc1ccc(O)cc1,inconclusive: 28%
15,CCOc1ccc(CNc2nc(-c3nnc(-c4cccc(C)c4)o3)nc3ccccc23)cc1,inconclusive: 27%
16,Cc1ccc(-c2csc(Nc3ccc(Cl)cc3)n2)cc1,inconclusive: 25%
17,Cc1ccc(C(=O)NCc2sccc2C)cc1N1CCNC1=O,inconclusive: 20%
18,O=C(NC1CC(=O)N(c2ccccc2)C1)c1ccc(S(=O)(=O)N2CCOCC2)cc1 (configuration not stated),inconclusive: 13%
19,Cc1ccc(C(O)=C2C(=O)C(=O)N(CCN(C)C)C2c2cccc([N+](=O)[O-])c2)cc1 (configuration not stated),inactive
20,Fc1ccccc1Cc1noc(CN2CCN(c3cccc(C(F)(F)F)c3)CC2)n1,inconclusive: 12%
21,CN(C)C[C@H]1O[C@@H](CO)[C@@H](O)[C@H]1N1CCc2ccccc2C1,inconclusive: 14%
22,COc1cccc(OCC(O)CN2CCN(Cc3ccccc3)CC2)c1 (configuration not stated),inconclusive: 15%

row,Compound,inhibition
1,COc1cccc(NC(=O)N[C@H]2C[C@@H](c3nc(Cc4ccccc4)no3)N(C)C2)c1,inactive
2,N#Cc1c(-n2ncnc2-c2cccs2)sc2c1CCCCC2,active: 44%
3,COc1ccc(-c2noc([C@@H]3C[C@H](NC(=O)c4ccc(C#N)cc4)CN3C)n2)cc1,inconclusive: 10%
4,Cc1nccn1CCn1cnc(-c2ccccc2)c1-c1cccc2cccnc12,inactive
5,N#C/C(=C\Nc1ccccc1F)c1nc(-c2cc3ccccc3oc2=O)cs1,inconclusive: 17%
6,Cc1ccc(O)c(C(=O)NC2CC(=O)N(Cc3ccccc3C(F)(F)F)C2)c1 (configuration not stated),inconclusive: 12%
7,CN(C)CCNc1cc(-c2ccc(Cl)cc2F)c2cc[nH]c2n1,active: 30%
8,Cc1c(Cl)c([N+](=O)[O-])nn1CCCC(=O)Nc1cc(Br)ccc1O,inconclusive: 14%
9,O=C(NCC1CCCO1)N1c2ccccc2Sc2ccccc21 (configuration not stated),inconclusive: 17%
10,Cc1nc(-c2cccc(NC(=O)C3CCN(c4ccccc4)C3=O)c2)no1 (configuration not stated),active: 37%
11,COc1ccccc1-n1c(SCc2cccc(F)c2)nc2c(c1=O)SCC2,inconclusive: 23% and inconclusive: 12%
12,COCCNC(=O)[C@@H](C)[C@@H]1CC[C@@]2(C)CC[C@H](NC(=O)C3CC3)[C@@H](C)[C@@H]2[C@H]1O,inactive
13,O=c1c2c[nH]c3ccccc3nc-2c2ccccc12,active: 42%
14,Cn1c(C(=O)N(Cc2ccccc2)Cc2ccccc2)cc2c(=O)n3ccccc3nc21,inconclusive: 11%
15,COc1cc(Nc2nc(-c3nnc(-c4ccc(C)cc4)o3)nc3ccccc23)cc(OC)c1OC,inactive
16,Cc1ccc(OCCCn2cc(/C=C3/C(=N)N4C=CSC4=NC3=O)c3ccccc32)cc1C,inconclusive: 21%
17,COc1ccc(S(=O)(=O)ON=C2C=CC(=O)C=C2)cc1,active: 32%
18,COc1ccccc1N1CCN(CC[C@H]2CN(C(=O)N3CCOCC3)CC[C@H]2CC(=O)O)CC1,active: 33%
19,CSc1ncc(CN(C)CC2CCN(CCc3ccc(F)cc3)CC2)cn1,inconclusive: 16%
20,CC(C)C[C@@H](NC(=O)C1=C[C@@H](NC(=O)c2cccs2)[C@@H](O)[C@H](O)C1)C(N)=O,inconclusive: 28%
21,Cc1nc(CCNC(=O)c2ccc(=O)n(C)c2)sc1C,inconclusive: 21%
22,CCN(Cc1noc(C)n1)C(=O)CC1CCc2ccccc21 (configuration not stated),inconclusive: 10%

row,Compound,inhibition
1,COc1ccccc1Oc1ncccc1CNC(=O)C1CC=CCC1 (configuration not stated),inactive
2,O=C1CCCC2=C1C(c1ccc([N+](=O)[O-])cc1)n1nc(SCc3ccccc3F)nc1N2 (configuration not stated),inconclusive: 12%
3,O=C1CCc2cc(S(=O)(=O)N3CC(=O)N(CCc4ccccc4)C(=O)C3)ccc2N1,inactive
4,CCCNC(=O)C1CCC(Cn2c(=O)c3sccc3n(CC(=O)NC3CCCC3)c2=O)CC1 (configuration not stated),inconclusive: 13%
5,O=C1Nc2ccc(Br)cc2/C1=C/c1cccc(F)c1,active: 30%
6,CC(=O)Nc1ccc(N=Cc2c(C)c(Cl)c(C)c([N+](=O)[O-])c2O)cc1,inactive
7,COC(=O)c1sc2nc3n(c(=O)c2c1C)N=C(c1ccccc1)CS3,inconclusive: 10%
8,NC(=O)C1(N2CCCCC2)CCN(C(=O)C2CCC(=O)N(C3CCCC3)C2)CC1 (configuration not stated),inactive
9,O=C(c1ccc(OCCCc2cnc[nH]2)cc1)C1CC1,inconclusive: 18%
10,O[C@@H]1CN(c2ncnc3nc[nH]c23)CC[C@H]1N1CCOCC1,inconclusive: 24%
11,CCC1CCCCN1CCCNC(=O)CSc1cc(=O)n(C)c2ccccc12 (configuration not stated),inactive
12,CC(C)=CCN1CCN(Cc2ccncc2)CC1CCO (configuration not stated),inactive
13,O=C(O)CCNC(=O)/C(=C/c1ccc2c(c1)OCO2)NC(=O)c1ccc(Br)cc1,inactive
14,COC(=O)[C@H](O)[C@H]1C(C)(C)[C@H](OC(C)=O)[C@@]2(O)C(=O)[C@]1(C)C1CC[C@]3(C)C(CC(=O)O[C@H]3c3ccoc3)[C@]13O[C@@H]32 (some centres not stated),inconclusive: 12%
15,O=C(c1noc2c1CCCC2)N1CCN(Cc2ccccc2)CC1,inconclusive: 20%
16,O=C(c1ccccc1)c1c[nH]c2cc3c(cc2c1=O)OCO3,inconclusive: 18%
17,CC(c1ccncn1)N(C)Cc1cn(Cc2ccccc2)nc1-c1ccc2c(c1)OCO2 (configuration not stated),inconclusive: 14%
18,C[C@H]1[C@H](C)CC[C@]2(C(=O)O[C@@H]3O[C@H](CO)[C@@H](O)[C@H](O)[C@H]3O)CC[C@]3(C(=O)O)C(=CCC4[C@@]5(C)CC[C@H](O[C@@H]6O[C@H](CO)[C@@H](O)[C@H](O)[C@H]6O)C(C)(C)C5CC[C@]43C)[C@H]12 (some centres not stated),inconclusive: 19%
19,CC1(C)CC(=O)C=C(C(=O)N2CCCC(CO)(CCOc3ccccc3)C2)O1 (configuration not stated),inactive
20,O=C1c2ccc(S(=O)(=O)c3ccc4c(c3)C(=O)N(CCO)C4=O)cc2C(=O)N1CCO,inconclusive: 13%
21,COc1ccc(N/C(C)=C(\C#N)C(N)=O)cc1,inactive
22,Cc1ccc(NS(=O)(=O)c2c(C)noc2C)c(C)c1,inactive

row,Compound,inhibition
1,CSc1nccc(-c2ccc(Cl)cc2Cl)n1,inconclusive: 12%
2,O=C(NCCCN1CCOCC1)C1C2C=CC3(CN(Cc4cccs4)C(=O)C13)O2 (configuration not stated),inconclusive: 11%
3,Cc1nn(CCCC(=O)Nc2cccc(Cl)c2Cl)c(C)c1[N+](=O)[O-],inconclusive: 21% and inconclusive: 11%
4,CN1C(=O)/C(=C/c2ccc(-c3ccccc3C(=O)O)o2)SC1=Nc1ccc(C(=O)O)cc1,inconclusive: 25%
5,CCOC(=O)N1CCN(C(=O)c2csc3nc(-c4cccc(Cl)c4)cn23)CC1,inconclusive: 13%
6,CCOc1ccc(C2CC(c3ccc(Cl)cc3)Nc3nc(N)nn32)cc1 (configuration not stated),inconclusive: 15%
7,O=C1CCSc2ccccc2N1Cc1ccc(F)cc1,inconclusive: 10%
8,Cc1ccc(N2CCN(Cc3ccc(C)o3)CC2)cc1,inconclusive: 28%
9,COc1cccc(-c2cc(C(F)(F)F)nc(-n3cccn3)n2)c1,inconclusive: 14%
10,CCOc1cccc(C(=O)Nc2ccc(NC(=O)c3cc4ccccc4o3)c(OC)c2)c1,inconclusive: 11%
11,O=C(Nc1ccccc1Cl)Nc1cccnc1Cl,inconclusive: 11%
12,CCOc1ccc(NC(=O)CN2CCN(Cc3ccc(F)cc3Cl)S2(=O)=O)cc1,inactive
13,CC(C)OCCCNC(=O)CN1C(=O)/C(=C/c2ccccc2F)Sc2ccccc21,inconclusive: 18%
14,O=C(CCc1ccncc1)NCCN1Cc2ccccc2OC(c2ccccc2F)C1 (configuration not stated),inconclusive: 10%
15,COCC(=O)NCCc1nc2ccccc2n1C,inactive
16,O=C(Cn1cnc2c(cnn2-c2ccc(Cl)cc2)c1=O)N1CCCC1,inactive
17,Cc1ccccc1NS(=O)(=O)c1cccc2nsnc12,inconclusive: 11%
18,Cc1cccc(C(=O)Nc2ccc(Nc3nc(C)cc(N(C)C)n3)cc2)c1,inconclusive: 16%
19,O=C(O)CCCC(=O)Nc1cccc(F)c1,inactive
20,Cc1cnc(CNC(=O)c2cnn3c2CCCC3)cn1,inconclusive: 12%
21,CC1(C)CC(=O)C2=C(C1)NC1=C(C(=O)c3ccccc31)C2c1ccc([N+](=O)[O-])o1 (configuration not stated),inconclusive: 25%
